Among the data in publication PMC4458714 are binding values, retold here.

For test [1], the target named is MEP-1 (Drosophila melanogaster (endogenous in S2 cells)). Nature of the test: co-IP; endogenous proteins from S2 cell extracts after RNase treatment, Western blot for Topo II. On the technique in general: A western blot detects proteins with antibodies after separation by electrophoresis.
For test [2] the target is unchanged. Nature of the test: co-IP; endogenous proteins: 2 mg untransfected S2 cell extract with a specific antibody (anti-MEP-1, anti-Mi-2 or anti-p66) overnight at 4 °C, Protein G agarose, Western blot; with or without MSL2 knockdown; mock IP with generic IgG.

Results are given in words; binding and its absence hold for the method and conditions named. In cells and extracts the contact can be indirect. For some assays here: Binding calls can cover weak binding; strength is not graded here.

B1: Topo II (protein, UniProt P15348 1-1447)
chain: MENGNKALSIEQMYQKKSQLEHILLRPDSYIGSVEFTKELMWVYDNSQNRMVQKEISFVPGLYKIFDEILVNAADNKQRDKSMNTIKIDIDPERNMVSVWNNGQGIPVTMHKEQKMYVPTMIFGHLLTSSNYNDDEKKVTGGRNGYGAKLCNIFSTSFTVETATREYKKSFKQTWGNNMGKASDVQIKDFNGTDYTRITFSPDLAKFKMDRLDEDIVALMSRRAYDVAASSKGVSVFLNGNKLGVRNFKDYIDLHIKNTDDDSGPPIKIVHEVANERWEVACCPSDRGFQQVSFVNSIATYKGGRHVDHVVDNLIKQLLEVLKKKNKGGINIKPFQVRNHLWVFVNCLIENPTFDSQTKENMTLQQKGFGSKCTLSEKFINNMSKSGIVESVLAWAKFKAQNDIAKTGGRKSSKIKGIPKLEDANEAGGKNSIKCTLILTEGDSAKSLAVSGLGVIGRDLYGVFPLRGKLLNVREANFKQLSENAEINNLCKIIGLQYKKKYLTEDDLKTLRYGKVMIMTDQDQDGSHIKGLLINFIHTNWPELLRLPFLEEFITPIVKATKKNEELSFYSLPEFEEWKNDTANHHTYNIKYYKGLGTSTSKEAKEYFQDMDRHRILFKYDGSVDDESIVMAFSKKHIESRKVWLTNHMDEVKRRKELGLPERYLYTKGTKSITYADFINLELVLFSNADNERSIPSLVDGLKPGQRKVMFTCFKRNDKREVKVAQLSGSVAEMSAYHHGEVSLQMTIVNLAQNFVGANNINLLEPRGQFGTRLSGGKDCASARYIFTIMSPLTRLIYHPLDDPLLDYQVDDGQKIEPLWYLPIIPMVLVNGAEGIGTGWSTKISNYNPREIMKNLRKMINGQEPSVMHPWYKNFLGRMEYVSDGRYIQTGNIQILSGNRLEISELPVGVWTQNYKENVLEPLSNGTEKVKGIISEYREYHTDTTVRFVISFAPGEFERIHAEEGGFYRVFKLTTTLSTNQMHAFDQNNCLRRFPTAIDILKEYYKLRREYYARRRDFLVGQLTAQADRLSDQARFILEKCEKKLVVENKQRKAMCDELLKRGYRPDPVKEWQRRIKMEDAEQADEEDEEEEEAAPSVSSKAKKEKEVDPEKAFKKLTDVKKFDYLLGMSMWMLTEEKKNELLKQRDTKLSELESLRKKTPEMLWLDDLDALESKLNEVEEKERAEEQGINLKTAKALKGQKSASAKGRKVKSMGGGAGAGDVFPDPDGEPVEFKITEEIIKKMAAAAKVAQAAKEPKKPKEPKEPKVKKEPKGKQIKAEPDASGDEVDEFDAMVEGGSKTSPKAKKAVVKKEPGEKKPRQKKENGGGLKQSKIDFSKAKAKKSDDDVEEVTPRAERPGRRQASKKIDYSSLFSDEEEDGGNVGSDDDGNASDDDSPKRPAKRGREDESSGGAKKKAPPKKRRAVIESDDDDIEIDEDDDDDSDFNC
As to B1, the binding entry in test [1] is reported as “no binding (only after RNase treatment)”; in test [2], “binds”.
